Reference: PubChem BioAssay AID1508597 (Cure First, 2020)
This is an unselected part of the about 2,100 reagents, in one setting of the screen. 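Calls flag viability under 80% in either arm, not effects specific to rucaparib; the reference for percent is not stated.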 Some reagents were tested in more than one well and are listed for each. Not given: the 100% reference.

- Purpose: 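Survival screen with siRNA in ovarian cancer cells derived from patients, with or without rucaparib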 (primary screen)
- Cell system: human ovarian carcinoma lines grown from tumours: OCI-P5x (papillary serous) and OCI-C5x (clear cell)
- Reagent: siRNA pool against human genes, 1.25 pmol siRNA per well
- Timing: 72 h or 96 h, depending on the cell culture
- Challenge: rucaparib 20 µM (about IC30) or vehicle, present until read-out
- Rucaparib or vehicle: Vehicle
- Cell line: OCI-P5x (serous)
- Read-out: 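ATP luminescence measured at 72 or 96 h according to the culture, then normalised and expressed as percent viability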
- Reading the numbers: viability, normalised: higher = more viable cells remaining
- Active means: 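a well counts as a hit if its normalised viability is under 80 percent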
- Meaning of the calls: active = viability under 80%; inactive = viability 80% or more

no.	gene knocked down	PubChem SID	technical replicate	viability, normalised (%)	Call
1	ALKBH2 (alkB homolog 2, alpha-ketoglutarate dependent dioxygenase)	SID405528254	1	60.5	active
2	ALKBH2 (alkB homolog 2, alpha-ketoglutarate dependent dioxygenase)	SID405528254	2	51.8	active
3	ALKBH2 (alkB homolog 2, alpha-ketoglutarate dependent dioxygenase)	SID405528254	3	55.3	active
4	PARP14 (poly(ADP-ribose) polymerase family member 14)	SID405527108	1	61.7	active
5	PARP14 (poly(ADP-ribose) polymerase family member 14)	SID405527108	2	60.5	active
6	PARP14 (poly(ADP-ribose) polymerase family member 14)	SID405527108	3	76.1	active
7	RABGGTA (Rab geranylgeranyltransferase subunit alpha)	SID405527220	1	52.9	active
8	RABGGTA (Rab geranylgeranyltransferase subunit alpha)	SID405527220	2	59.1	active
9	RABGGTA (Rab geranylgeranyltransferase subunit alpha)	SID405527220	3	48.7	active
10	CHIC1 (cysteine rich hydrophobic domain 1)	SID405528109	1	58.2	active
11	CHIC1 (cysteine rich hydrophobic domain 1)	SID405528109	2	57.1	active
12	CHIC1 (cysteine rich hydrophobic domain 1)	SID405528109	3	80.1	inactive
13	PLCB4 (phospholipase C beta 4)	SID405526708	1	70.3	active
14	PLCB4 (phospholipase C beta 4)	SID405526708	2	89.1	inactive
15	PLCB4 (phospholipase C beta 4)	SID405526708	3	83.4	inactive
16	SRPK1 (SRSF protein kinase 1)	SID405527798	1	92.1	inactive
17	SRPK1 (SRSF protein kinase 1)	SID405527798	2	73.9	active
18	SRPK1 (SRSF protein kinase 1)	SID405527798	3	82.5	inactive
19	TAOK2 (TAO kinase 2)	SID405527606	1	129	inactive
20	TAOK2 (TAO kinase 2)	SID405527606	2	114	inactive
21	TAOK2 (TAO kinase 2)	SID405527606	3	85.7	inactive
22	UBE2V2 (ubiquitin conjugating enzyme E2 V2)	SID405528425	1	70.4	active
23	UBE2V2 (ubiquitin conjugating enzyme E2 V2)	SID405528425	2	91	inactive
24	UBE2V2 (ubiquitin conjugating enzyme E2 V2)	SID405528425	3	75.4	active
25	SMPD1 (sphingomyelin phosphodiesterase 1)	SID405526718	1	68.5	active
26	SMPD1 (sphingomyelin phosphodiesterase 1)	SID405526718	2	72.2	active
27	SMPD1 (sphingomyelin phosphodiesterase 1)	SID405526718	3	55.3	active
28	CSNK1G1 (casein kinase 1 gamma 1)	SID405527550	1	50.5	active
29	CSNK1G1 (casein kinase 1 gamma 1)	SID405527550	2	48.7	active
30	CSNK1G1 (casein kinase 1 gamma 1)	SID405527550	3	50.3	active
31	RFC4 (replication factor C subunit 4)	SID405528284	1	79.5	active
32	RFC4 (replication factor C subunit 4)	SID405528284	2	66.5	active
33	RFC4 (replication factor C subunit 4)	SID405528284	3	57.5	active
34	PALS1 (protein associated with LIN7 1, MAGUK p55 family member)	SID405527787	1	102	inactive
35	PALS1 (protein associated with LIN7 1, MAGUK p55 family member)	SID405527787	2	98.1	inactive
36	PALS1 (protein associated with LIN7 1, MAGUK p55 family member)	SID405527787	3	78.1	active
37	TOP3B (DNA topoisomerase III beta)	SID405528498	1	85.7	inactive
38	TOP3B (DNA topoisomerase III beta)	SID405528498	2	95.2	inactive
39	TOP3B (DNA topoisomerase III beta)	SID405528498	3	98.4	inactive
40	MAP4K1 (mitogen-activated protein kinase kinase kinase kinase 1)	SID405527846	1	84.9	inactive
41	MAP4K1 (mitogen-activated protein kinase kinase kinase kinase 1)	SID405527846	2	83.1	inactive
42	MAP4K1 (mitogen-activated protein kinase kinase kinase kinase 1)	SID405527846	3	67.6	active
43	TK1 (thymidine kinase 1)	SID405528298	1	86.3	inactive
44	TK1 (thymidine kinase 1)	SID405528298	1	87.2	inactive
45	TK1 (thymidine kinase 1)	SID405528298	2	84.1	inactive
46	TK1 (thymidine kinase 1)	SID405528298	2	82.6	inactive
47	TK1 (thymidine kinase 1)	SID405528298	3	88.9	inactive
48	TK1 (thymidine kinase 1)	SID405528298	3	74.1	active
49	SMUG1	SID405528394	1	67.4	active
50	SMUG1	SID405528394	2	77.6	active
51	SMUG1	SID405528394	3	78	active
52	SRPK2 (SRSF protein kinase 2)	SID405527934	1	88.8	inactive
53	SRPK2 (SRSF protein kinase 2)	SID405527934	2	78.2	active
54	SRPK2 (SRSF protein kinase 2)	SID405527934	3	81.5	inactive
55	MTA2 (metastasis associated 1 family member 2)	SID405527035	1	49.5	active
56	MTA2 (metastasis associated 1 family member 2)	SID405527035	2	43.7	active
57	MTA2 (metastasis associated 1 family member 2)	SID405527035	3	52.5	active
